Experimental data published in the supplement of paper PMC6078165.
The reference is the same well before dosing, and untreated signal decays as well.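 Fibroblast labels denote human fibroblasts, mainly primary ones from uterus (C12385, HUF), lung (H6013), bone (Hs27A), adrenal (HADF) and skin (WS1), plus mammary HMF and breast cancer-associated Hs343T. Cancer cells are basal-like or mesenchymal-like triple-negative breast cancer lines. A hit is a response shift exceeding 3x replicate standard deviation. The tissue of the other fibroblasts is not given here.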

System: Hs578T
Experiment: relative JC-1 red fluorescence (viability) vs pre-drug, coculture with fibroblast (fraction); higher = more viable cancer cells
Protocol: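 JC-1 labelled TNBC cells cocultured 1:1 (1,500 cells each) with CellTrace Violet stained primary or stromal fibroblasts in 384-well plates in FluoroBrite medium, treated with one of 42 anticancer drugs at 0.1, 1, 10 or 100 uM. JC-1 red fluorescence (mitochondrial integrity in cancer cells only) was read by plate reader every 8 h for 72 h. Values are normalised to each well's pre-drug value. The stock of one drug was tenfold lower, so its dose labels may be too high.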

O=C(CCCCCCC(=O)Nc1ccccc1)NO [Vorinostat]
relative JC-1 red fluorescence
Settings | 8 h | 16 h | 24 h | 32 h | 40 h | 48 h | 56 h | 64 h | 72 h
0.1 µM | 0.877 | 0.777 | 0.711 | 0.671 | 0.606 | 0.562 | 0.53 | 0.49 | 0.472
1 µM | 0.9305 | 0.815 | 0.715 | 0.647 | 0.578 | 0.529 | 0.499 | 0.465 | 0.451
10 µM | 0.8687 | 0.754 | 0.686 | 0.629 | 0.55 | 0.506 | 0.494 | 0.476 | 0.492
100 µM | 0.909 | 0.779 | 0.687 | 0.598 | 0.495 | 0.446 | 0.421 | 0.411 | 0.422

relative JC-1 red fluorescence
Settings | 8 h | 16 h | 24 h | 32 h | 40 h | 48 h | 56 h | 64 h | 72 h
0.1 µM, coculture fibroblast: C12385 | 0.829 | 0.698 | 0.647 | 0.554 | 0.49 | 0.457 | 0.4279 | 0.415 | 0.4081
0.1 µM, coculture fibroblast: H6013 | 0.8079 | 0.767 | 0.714 | 0.6772 | 0.6504 | 0.6456 | 0.628 | 0.6272 | 0.604
0.1 µM, coculture fibroblast: H6019 | 0.764 | 0.6672 | 0.603 | 0.5064 | 0.453 | 0.41 | 0.372 | 0.345 | 0.323
0.1 µM, coculture fibroblast: H6076 | 0.884 | 0.8098 | 0.74055 | 0.715 | 0.6658 | 0.66 | 0.634 | 0.621 | 0.62
0.1 µM, coculture fibroblast: H6231 | 0.943 | 0.847 | 0.76 | 0.709 | 0.641 | 0.612 | 0.562 | 0.537 | 0.514
0.1 µM, coculture fibroblast: HADF | 0.882 | 0.773 | 0.726 | 0.688 | 0.654 | 0.633 | 0.608 | 0.601 | 0.577
0.1 µM, coculture fibroblast: HCFa | 0.847 | 0.762 | 0.694 | 0.629 | 0.577 | 0.545 | 0.504 | 0.487 | 0.452
0.1 µM, coculture fibroblast: HCPF | 0.921 | 0.851 | 0.793 | 0.743 | 0.684 | 0.662 | 0.629 | 0.587 | 0.563
0.1 µM, coculture fibroblast: HHSteC | 0.8522 | 0.726 | 0.6575 | 0.596 | 0.532 | 0.492 | 0.457 | 0.43 | 0.396
0.1 µM, coculture fibroblast: HMF | 0.8831 | 0.787 | 0.731 | 0.705 | 0.6422 | 0.62 | 0.589 | 0.567 | 0.553
0.1 µM, coculture fibroblast: HPFa | 0.937 | 0.833 | 0.77 | 0.715 | 0.669 | 0.635 | 0.5977 | 0.579 | 0.537
0.1 µM, coculture fibroblast: HUF | 0.8461 | 0.693 | 0.648 | 0.5427 | 0.485 | 0.457 | 0.432 | 0.43 | 0.426
0.1 µM, coculture fibroblast: Hs27A | 0.894 | 0.799 | 0.751 | 0.704 | 0.642 | 0.607 | 0.564 | 0.551 | 0.503
0.1 µM, coculture fibroblast: Hs343T | 0.913 | 0.79 | 0.7109 | 0.6729 | 0.592 | 0.5506 | 0.503 | 0.479 | 0.4722
0.1 µM, coculture fibroblast: WS1 | 0.824 | 0.697 | 0.6187 | 0.534 | 0.471 | 0.44 | 0.402 | 0.391 | 0.385
1 µM, coculture fibroblast: C12385 | 0.8285 | 0.7414 | 0.648 | 0.545 | 0.471 | 0.44 | 0.418 | 0.415 | 0.415
1 µM, coculture fibroblast: H6013 | 0.901 | 0.857 | 0.813 | 0.797 | 0.769 | 0.768 | 0.759 | 0.774 | 0.759
1 µM, coculture fibroblast: H6019 | 0.7676 | 0.648 | 0.583 | 0.49 | 0.462 | 0.454 | 0.429 | 0.427 | 0.413
1 µM, coculture fibroblast: H6076 | 0.948 | 0.862 | 0.76 | 0.722 | 0.662 | 0.645 | 0.627 | 0.6192 | 0.6212
1 µM, coculture fibroblast: H6231 | 0.93 | 0.88 | 0.754 | 0.718 | 0.669 | 0.636 | 0.588 | 0.562 | 0.545
1 µM, coculture fibroblast: HADF | 0.872 | 0.788 | 0.718 | 0.67 | 0.63 | 0.61 | 0.589 | 0.586 | 0.571
1 µM, coculture fibroblast: HCFa | 0.878 | 0.843 | 0.77 | 0.721 | 0.669 | 0.653 | 0.623 | 0.61 | 0.571
1 µM, coculture fibroblast: HCPF | 0.932 | 0.838 | 0.7372 | 0.69 | 0.615 | 0.59 | 0.573 | 0.563 | 0.549
1 µM, coculture fibroblast: HHSteC | 0.903 | 0.838 | 0.767 | 0.729 | 0.678 | 0.655 | 0.635 | 0.622 | 0.586
1 µM, coculture fibroblast: HMF | 0.8831 | 0.788 | 0.6817 | 0.652 | 0.582 | 0.537 | 0.508 | 0.496 | 0.49
1 µM, coculture fibroblast: HPFa | 0.91 | 0.853 | 0.746 | 0.68 | 0.66 | 0.639 | 0.614 | 0.601 | 0.575
1 µM, coculture fibroblast: HUF | 0.8646 | 0.7566 | 0.6513 | 0.5315 | 0.4632 | 0.427 | 0.395 | 0.385 | 0.378
1 µM, coculture fibroblast: Hs27A | 0.87 | 0.811 | 0.756 | 0.682 | 0.622 | 0.603 | 0.576 | 0.572 | 0.536
1 µM, coculture fibroblast: Hs343T | 0.8906 | 0.7783 | 0.6747 | 0.653 | 0.57454 | 0.5433 | 0.51 | 0.498 | 0.496
1 µM, coculture fibroblast: WS1 | 0.8169 | 0.693 | 0.641 | 0.531 | 0.466 | 0.45 | 0.429 | 0.439 | 0.439
10 µM, coculture fibroblast: C12385 | 0.8418 | 0.691 | 0.616 | 0.528 | 0.44 | 0.394 | 0.359 | 0.337 | 0.328
10 µM, coculture fibroblast: H6013 | 0.8743 | 0.74 | 0.667 | 0.618 | 0.57 | 0.557 | 0.545 | 0.548 | 0.541
10 µM, coculture fibroblast: H6019 | 0.761 | 0.6597 | 0.602 | 0.499 | 0.456 | 0.44 | 0.424 | 0.428 | 0.434
10 µM, coculture fibroblast: H6076 | 0.9019 | 0.791 | 0.701 | 0.654 | 0.586 | 0.5566 | 0.521 | 0.518 | 0.514
10 µM, coculture fibroblast: H6231 | 0.912 | 0.798 | 0.656 | 0.611 | 0.528 | 0.491 | 0.445 | 0.428 | 0.407
10 µM, coculture fibroblast: HADF | 0.8678 | 0.71 | 0.606 | 0.516 | 0.459 | 0.424 | 0.386 | 0.371 | 0.342
10 µM, coculture fibroblast: HCFa | 0.814 | 0.667 | 0.576 | 0.496 | 0.422 | 0.406 | 0.395 | 0.404 | 0.396
10 µM, coculture fibroblast: HCPF | 0.928 | 0.795 | 0.736 | 0.67 | 0.581 | 0.528 | 0.4853 | 0.44615 | 0.4214
10 µM, coculture fibroblast: HHSteC | 0.8877 | 0.741 | 0.668 | 0.599 | 0.539 | 0.514 | 0.499 | 0.495 | 0.485
10 µM, coculture fibroblast: HMF | 0.919 | 0.788 | 0.69 | 0.642 | 0.553 | 0.506 | 0.46 | 0.428 | 0.406
10 µM, coculture fibroblast: HPFa | 0.9237 | 0.7789 | 0.6849 | 0.5997 | 0.539 | 0.495 | 0.465 | 0.453 | 0.43
10 µM, coculture fibroblast: HUF | 0.871 | 0.668 | 0.615 | 0.504 | 0.434 | 0.399 | 0.371 | 0.377 | 0.3749
10 µM, coculture fibroblast: Hs27A | 0.8879 | 0.763 | 0.67 | 0.582 | 0.509 | 0.492 | 0.461 | 0.453 | 0.427
10 µM, coculture fibroblast: Hs343T | 0.8811 | 0.843 | 0.751 | 0.695 | 0.6033 | 0.567 | 0.514 | 0.481 | 0.465
10 µM, coculture fibroblast: WS1 | 0.8117 | 0.651 | 0.555 | 0.435 | 0.358 | 0.325 | 0.287 | 0.274 | 0.262
100 µM, coculture fibroblast: C12385 | 0.833 | 0.687 | 0.596 | 0.501 | 0.431 | 0.387 | 0.353 | 0.332 | 0.326
100 µM, coculture fibroblast: H6013 | 0.89 | 0.718 | 0.647 | 0.582 | 0.5157 | 0.477 | 0.455 | 0.467 | 0.456
100 µM, coculture fibroblast: H6019 | 0.779 | 0.654 | 0.601 | 0.483 | 0.449 | 0.444 | 0.434 | 0.452 | 0.454
100 µM, coculture fibroblast: H6076 | 0.923 | 0.772 | 0.7092 | 0.664 | 0.581 | 0.546 | 0.515 | 0.51 | 0.53
100 µM, coculture fibroblast: H6231 | 0.891 | 0.78 | 0.701 | 0.663 | 0.586 | 0.552 | 0.527 | 0.517 | 0.52
100 µM, coculture fibroblast: HADF | 0.886 | 0.771 | 0.664 | 0.563 | 0.48 | 0.437 | 0.398 | 0.385 | 0.362
100 µM, coculture fibroblast: HCFa | 0.858 | 0.702 | 0.628 | 0.526 | 0.446 | 0.429 | 0.41 | 0.419 | 0.41
100 µM, coculture fibroblast: HCPF | 0.898 | 0.7951 | 0.7116 | 0.659 | 0.568 | 0.522 | 0.505 | 0.462 | 0.447
100 µM, coculture fibroblast: HHSteC | 0.899 | 0.722 | 0.634 | 0.541 | 0.471 | 0.432 | 0.406 | 0.397 | 0.378
100 µM, coculture fibroblast: HMF | 0.915 | 0.779 | 0.703 | 0.652 | 0.557 | 0.49 | 0.455 | 0.43 | 0.418
100 µM, coculture fibroblast: HPFa | 0.897 | 0.738 | 0.632 | 0.542 | 0.478 | 0.448 | 0.416 | 0.408 | 0.384
100 µM, coculture fibroblast: HUF | 0.8743 | 0.732 | 0.663 | 0.5521 | 0.503 | 0.4775 | – | 0.466 | 0.473
100 µM, coculture fibroblast: Hs27A | 0.9002 | 0.8249 | 0.713 | 0.645 | 0.566 | 0.535 | 0.498 | 0.492 | 0.453
100 µM, coculture fibroblast: Hs343T | 0.901 | 0.757 | 0.683 | 0.623 | 0.527 | 0.47 | 0.423 | 0.391 | 0.39
100 µM, coculture fibroblast: WS1 | 0.8111 | 0.666 | 0.555 | 0.436 | 0.358 | 0.335 | 0.31 | 0.301 | 0.297
